{"source": "patent EP0411567A1", "about": "“5-(omega-Aminoacyl)-5,10-dihydro-11H-dibenzo[b,e][1,4]-diazepin-11-ones, processes for their preparation, and their use as medicaments” (ARZNEIMITTELWERK DRESDEN GmbH, priority 1989, dated 1991)", "tested_on": "Wistarratten", "test": "Orienting determination of acute toxicity in rats, i.v.", "assay_type": "in vivo, Ratte", "conditions": "therapeutic breadth; rat LD₅₀ i.v. / rat CaCl₂-arrhythmia ED₅₀", "from_the_text": "Die Verbindungen der allgemeinen Formeln I, VII bzw. X zeigen bei intravenöser Anwendung an Ratten eine bessere Verträglichkeit als ihre Referenzpräparate.\nED₅₀ i.v. = Dosis in mg/kg, welche die fibrillatorische Wirkung von CaCl₂ an Ratten nach I.v.-Applikation der Testsubstanz um 50 % unterdrückt. Berechnung nach der Probit-Regressionsanalyse mit Vertrauensbereich, p = 0,05 (Werte in Klammern) LD₅₀ i.v. = Letale Dosis in mg/kg bei 50 % der Versuchstiere einer orientierenden Bestimmung der akuten Toxizität an Wistarratten hauseigener Zucht, I.v.-Applikation in die Schwanzvene, 3 - 4 Dosierungen zu je 10 Tieren.\nBerechnung nach der Probit-Regressionsanalyse mit Vertrauensbereich, p = 0,05 (Werte in Klammern) [formula] zur Ermittlung der therapeutischen Breite eff. Dosis = effektive Dosis in mg/kg Wirkungsdauer = Wirkungsdauer in Minuten an Hunden, 24 h nach zweistufiger Koronarligatur"}
{"smiles": "CCN(CC)CC(=O)Nc1c(C)cccc1C", "note": "[Lidocain, reference compound]", "values": [{"measurement": "Q LD₅₀/ED₅₀", "result": "5,8"}]}
